The list is a part of this screen's results and no random one: it gathers tests that were run many times, whatever their T/C, doses with no T/C, and many T/C values between a quarter and a half above the control. Other doses and runs of a compound stand elsewhere. T/C is the treated group as % of the vehicle group. Some doses have a count of surviving animals in place of a T/C: the source holds a T/C of zero for them, seemingly a mark for toxic or unscored doses. Some doses without a T/C left all or most animals alive at the check, yet need not have been tolerated: survival well below the control is almost never listed, so the zero probably covers shortened survival too. Counts of survivors are from the toxicity check (mostly the fifth day) where no day follows; animals may have died later. Schedules are NCI's codes, taken here to give the interval after Q, in days (D) or hours (H), and the number of doses after X. Some schedules carry Z or #; the key to these is not given. Some doses were run more than once; the results are listed from low to high. For survival time, this PubChem deposit counts one and a half times the control or more as active, and values a quarter to a half above the control carry no call in these data; other NCI protocols may use other cut-offs. Some T/C values carry the count of animals alive at the toxicity check (mostly the fifth day); where none is given, no animal had died by that day.
System: L1210 leukemia ip in BDF1 mice, survival T/C
Experiment: NCI In Vivo Anticancer Drug Screen. Data for tumor model L1210 Leukemia (intraperitoneal) in B6D2F1 (BDF1) mice
Details: higher T/C = longer survival
[1] = T/C endpoint: mean survival time, dose: 400.0 mg/kg/injection, schedule: Q01DX009 (ip), vehicle: acetone
[2] = T/C endpoint: mean survival time, dose: 200.0 mg/kg/injection, schedule: Q01DX001 (ip), vehicle: Klucel (hydroxypropylcellulose) (HPC)
[3] = T/C endpoint: mean survival time, dose: 400.0 mg/kg/injection, schedule: Q01DX001 (ip), vehicle: Klucel (hydroxypropylcellulose) (HPC)
[4] = T/C endpoint: mean survival time, dose: 500.0 mg/kg/injection, schedule: Q01DX Z (ip), vehicle: methylcellulose (MC)
[5] = T/C endpoint: mean survival time, dose: 400.0 mg/kg/injection, schedule: Q01DX001 (ip), vehicle: saline

In the case of `CCOC(O)C(F)(F)F` (stereo not given), the survivor count [1] is reported as 3 of 6 and the survivor count (T/C endpoint: mean survival time, dose: 400.0 mg/kg/injection, schedule: Q01DX015 (ip), vehicle: saline) is reported as 3 of 6.
With `Clc1ccc(Nc2cc[n+]3ccccc3c2)cc1Cl` the survivor count [2] was 1 of 6 and the survivor count [3] was 0 of 6.
With `CC(C)(C)c1ccc(S(=O)(=O)C/C=C/COc2ccccc2)cc1` the survivor count (T/C endpoint: mean survival time, dose: 300.0 mg/kg/injection, schedule: Q01DX009 (ip), vehicle: Klucel (hydroxypropylcellulose) (HPC)) was 5 of 6.
`COc1ncnc2c1nnn2C1OC(CO)C(O)C1O` (stereo not given) was tested, and the T/C (T/C endpoint: mean survival time, dose: 50.0 mg/kg/injection, schedule: Q01DX001 (ip), vehicle: saline with Tween-80) was 129 % of control.
For `c1ccc(-c2oc(-c3ccccc3)c3c(-c4ccccc4)cccc23)cc1`, the survivor count (T/C endpoint: mean survival time, dose: 200.0 mg/kg/injection, schedule: Q04DX002 (ip), vehicle: saline with Tween-80) was 3 of 3.
In the case of `CC1CN=C(c2ccc(NC(=O)NCCCCCCCCCCNC(=O)Nc3ccc(C4=NCC(C)N4)cc3)cc2)N1` (stereo not given), the survivor count (T/C endpoint: mean survival time, dose: 42.0 mg/kg/injection, schedule: Q01DX015 (ip), vehicle: water) is reported as 0 of 6.
In the case of `O=C(COc1ccccc1[N+](=O)[O-])Nc1ccccc1C(=O)O`, the survivor count (T/C endpoint: mean survival time, dose: 400.0 mg/kg/injection, schedule: Q01DX001 (ip), vehicle: saline with Tween-80) is reported as 1 of 6.
In the case of `[B-][N+]12CC[N+]([B-])(CC1)CC2`, the survivor count (T/C endpoint: mean survival time, dose: 0.5 mg/kg/injection, schedule: Q04DX003 (ip), vehicle: saline) is reported as 0 of 6, the survivor count (T/C endpoint: mean survival time, dose: 1.0 mg/kg/injection, schedule: Q04DX003 (ip), vehicle: saline) is reported as 3 of 6 and the survivor count (T/C endpoint: mean survival time, dose: 2.0 mg/kg/injection, schedule: Q04DX003 (ip), vehicle: saline) is reported as 0 of 6. For the same molecule, the survivor count (T/C endpoint: mean survival time, dose: 6.25 mg/kg/injection, schedule: Q04DX003 (ip), vehicle: Klucel (hydroxypropylcellulose) (HPC)) was 0 of 6, the survivor count (T/C endpoint: mean survival time, dose: 12.5 mg/kg/injection, schedule: Q04DX003 (ip), vehicle: Klucel (hydroxypropylcellulose) (HPC)) was 0 of 6 and the survivor count (T/C endpoint: mean survival time, dose: 25.0 mg/kg/injection, schedule: Q04DX003 (ip), vehicle: Klucel (hydroxypropylcellulose) (HPC)) was 0 of 6. For the same molecule, the survivor count (T/C endpoint: mean survival time, dose: 100.0 mg/kg/injection, schedule: Q04DX003 (ip), vehicle: Klucel (hydroxypropylcellulose) (HPC)) was 0 of 6, the survivor count (T/C endpoint: mean survival time, dose: 200.0 mg/kg/injection, schedule: Q04DX003 (ip), vehicle: Klucel (hydroxypropylcellulose) (HPC)) was 0 of 6 and the survivor count (T/C endpoint: mean survival time, dose: 400.0 mg/kg/injection, schedule: Q04DX003 (ip), vehicle: Klucel (hydroxypropylcellulose) (HPC)) was 0 of 6.
`O=C(OCCOCCOCCOCCOCCOCCOCCOCCOCCOCCOCCOCCOCCOCCOCCOCCOCCOCCOCCOCCOCCOCCOC(=O)N1CC1)N1CC1` was tested, and the survivor count [1] was 3 of 6.
For `S=C(NCc1ccco1)Nc1ccccc1Cl`, the survivor count (T/C endpoint: mean survival time, dose: 400.0 mg/kg/injection, schedule: Q01DX009 (ip), vehicle: Klucel (hydroxypropylcellulose) (HPC)) was 0 of 6.
With `c1ccc2c(c1)Cc1ccccc1[As]2c1cccc2ccccc12` the survivor count (T/C endpoint: mean survival time, dose: 222.0 mg/kg/injection, schedule: Q01DX Z (ip), vehicle: methylcellulose (MC)) was 6 of 6, the survivor count (T/C endpoint: mean survival time, dose: 333.0 mg/kg/injection, schedule: Q01DX Z (ip), vehicle: methylcellulose (MC)) was 6 of 6 and the survivor count [4] was 6 of 6.
For `Cc1cc2oc(=O)c3c(c2c(O)c1CN1CCN(C)CC1)CCCC3`, the survivor count [5] was 1 of 6.
In the case of `CCN(CC)C(=S)SSC(=S)N(CC)CC`, the survivor count (T/C endpoint: mean survival time, dose: 100.0 mg/kg/injection, schedule: Q01DX009 (ip), vehicle: Klucel (hydroxypropylcellulose) (HPC)) is reported as 6 of 6.
`CC(C)(C)C1=CC(=O)C=CC1=O` was tested, and the survivor count (T/C endpoint: mean survival time, dose: 200.0 mg/kg/injection, schedule: Q01DX009 (ip), vehicle: water) was 0 of 6, the survivor count (T/C endpoint: mean survival time, dose: 300.0 mg/kg/injection, schedule: Q01DX001 (ip), vehicle: water) was 2 of 6 and the survivor count (T/C endpoint: mean survival time, dose: 300.0 mg/kg/injection, schedule: Q01DX009 (ip), vehicle: water) was 0 of 6. The survivor count (T/C endpoint: mean survival time, dose: 400.0 mg/kg/injection, schedule: Q01DX001 (ip), vehicle: water) was 1 of 6.
For `NNC(=O)NO`, the T/C (T/C endpoint: mean survival time, dose: 22.0 mg/kg/injection, schedule: Q01DX009 (ip), vehicle: saline) was 129 % of control, the T/C (T/C endpoint: mean survival time, dose: 75.0 mg/kg/injection, schedule: Q01DX009 (ip), vehicle: saline) was 130 % of control and the survivor count (T/C endpoint: mean survival time, dose: 100.0 mg/kg/injection, schedule: Q01DX009 (ip), vehicle: saline) was 3 of 6. The survivor count (T/C endpoint: mean survival time, dose: 200.0 mg/kg/injection, schedule: Q01DX009 (ip), vehicle: saline) was 0 of 6 and the survivor count (T/C endpoint: mean survival time, dose: 300.0 mg/kg/injection, schedule: Q01DX001 (ip), vehicle: saline) was 0 of 6.
For `NC(CSC(c1ccccc1)(c1ccccc1)c1ccc(Br)cc1)C(=O)O` (stereo not given), the T/C (T/C endpoint: mean survival time, dose: 6.25 mg/kg/injection, schedule: Q01DX009 (ip), vehicle: saline) was 138 % of control [5 of 6 alive], the T/C (T/C endpoint: mean survival time, dose: 12.5 mg/kg/injection, schedule: Q01DX009 (ip), vehicle: saline) was 142 % of control and the T/C (T/C endpoint: mean survival time, dose: 25.0 mg/kg/injection, schedule: Q01DX009 (ip), vehicle: saline) was 125 % of control. For the same molecule, the survivor count (T/C endpoint: mean survival time, dose: 50.0 mg/kg/injection, schedule: Q01DX009 (ip), vehicle: saline) was 1 of 8 and the survivor count (T/C endpoint: mean survival time, dose: 300.0 mg/kg/injection, schedule: Q01DX001 (ip), vehicle: other) was 0 of 6.
With `C[N+]1(C)C2CC(=O)CC1C1CC12` (stereo not given) the survivor count (T/C endpoint: mean survival time, dose: 400.0 mg/kg/injection, schedule: Q04DX003 (ip), vehicle: saline) was 4 of 6.
With `CC(C)(C)NC(=O)CCl` the survivor count [3] was 2 of 6.
For `NC(=O)c1cc(Cl)ccn1`, the survivor count (T/C endpoint: mean survival time, dose: 400.0 mg/kg/injection, schedule: Q04DX002 (ip), vehicle: saline with Tween-80) was 3 of 3.
For `CCCC[S][Pb]([c]1ccccc1)([c]1ccccc1)[c]1ccccc1`, the survivor count [3] was 2 of 6.
`C/C=C(\C)C(=NC)Nc1ccc(Cl)c(Cl)c1` was tested, and the survivor count [4] was 0 of 6.
With `CCCCCC(=O)N1CCCCC1C` (stereo not given) the survivor count (T/C endpoint: mean survival time, dose: 200.0 mg/kg/injection, schedule: Q01DX009 (ip), vehicle: carboxymethylcellulose (CMC)) was 0 of 3 and 1 of 6, the survivor count (T/C endpoint: mean survival time, dose: 200.0 mg/kg/injection, schedule: Q04DX002 (ip), vehicle: carboxymethylcellulose (CMC)) was 3 of 3 and the survivor count (T/C endpoint: mean survival time, dose: 400.0 mg/kg/injection, schedule: Q04DX002 (ip), vehicle: carboxymethylcellulose (CMC)) was 0 of 3.
With `CC(O)(c1ccncc1)c1cc2ccccc2n1S(=O)(=O)c1ccccc1` (stereo not given) the survivor count (T/C endpoint: mean survival time, dose: 400.0 mg/kg/injection, schedule: Q04DX002 (ip), vehicle: Klucel (hydroxypropylcellulose) (HPC)) was 1 of 3.
In the case of `O=c1[nH]nc(SCc2ccccc2)c(=S)[nH]1`, the survivor count (T/C endpoint: mean survival time, dose: 88.0 mg/kg/injection, schedule: Q01DX015 (ip), vehicle: other) is reported as 6 of 6 and the survivor count (T/C endpoint: mean survival time, dose: 133.0 mg/kg/injection, schedule: Q01DX015 (ip), vehicle: other) is reported as 5 of 6.
In the case of `CC1(C)N=C(N)N=C(N)N1NC(=O)c1ccc(Cl)cc1`, the survivor count (T/C endpoint: mean survival time, dose: 400.0 mg/kg/injection, schedule: Q04DX003 (ip), vehicle: saline with Tween-80) is reported as 0 of 6.
With `C=CCSc1ccc(Cl)cc1` the survivor count [5] was 2 of 6.
In the case of `CC1(C)N=C(c2ccccc2)C2(c3ccccc3)N1C2(C)C` (stereo not given), the survivor count (T/C endpoint: mean survival time, dose: 25.0 mg/kg/injection, schedule: Q01DX001 (ip), vehicle: Klucel (hydroxypropylcellulose) (HPC)) is reported as 0 of 6, the survivor count (T/C endpoint: mean survival time, dose: 50.0 mg/kg/injection, schedule: Q01DX001 (ip), vehicle: Klucel (hydroxypropylcellulose) (HPC)) is reported as 0 of 6 and the survivor count (T/C endpoint: mean survival time, dose: 100.0 mg/kg/injection, schedule: Q01DX001 (ip), vehicle: Klucel (hydroxypropylcellulose) (HPC)) is reported as 0 of 6. The survivor count [2] was 0 of 6 and the survivor count [3] was 0 of 6.
For `Cc1c(C)c(NC(=O)N(CCCl)N=O)c(C)c(C)c1NC(=O)N(CCCl)N=O`, the T/C (T/C endpoint: mean survival time, dose: 8.0 mg/kg/injection, schedule: Q01DX001 (ip), vehicle: other) was 127 % of control, the T/C (T/C endpoint: mean survival time, dose: 16.0 mg/kg/injection, schedule: Q01DX001 (ip), vehicle: other) was 127 % of control and the T/C (T/C endpoint: mean survival time, dose: 31.0 mg/kg/injection, schedule: Q01DX001 (ip), vehicle: other) was 133 and 139 % of control. For the same molecule, the T/C (T/C endpoint: mean survival time, dose: 62.0 mg/kg/injection, schedule: Q01DX001 (ip), vehicle: other) was 140 % of control and the survivor count (T/C endpoint: mean survival time, dose: 1000.0 mg/kg/injection, schedule: Q01DX001 (ip), vehicle: other) was 3 of 10.
In the case of `CN(Cc1cnc2nc(N)nc(N)c2n1)c1c(F)cc(C(=O)NC(CCC(=O)O)C(=O)O)cc1F` (stereo not given), the T/C (T/C endpoint: mean survival time, dose: 3.0 mg/kg/injection, schedule: Q01DX009 (ip), vehicle: sodium bicarbonate) is reported as 139 % of control and the T/C (T/C endpoint: mean survival time, dose: 6.0 mg/kg/injection, schedule: Q01DX009 (ip), vehicle: sodium bicarbonate) is reported as 142 % of control.
In the case of `CC(Cl)CN(C)c1ccc2ccccc2c1` (stereo not given), the survivor count (T/C endpoint: median survival time, dose: 400.0 mg/kg/injection, schedule: Q01DX009 (ip), vehicle: Klucel (hydroxypropylcellulose) (HPC)) is reported as 0 of 6.

From PubChem BioAssay AID248 (DTP/NCI, 2004)
